Laboratory results published in PubChem BioAssay AID1035470 (Broad Institute, 2014).
Among all 1,800 compounds or so, fewer than 10 were called active. About 16% were inconclusive and are not listed.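 Rule for the calls: active = compound lowering the normal-ribosome reporter at least twice as much as the humanized-ribosome reporter, growth loss under a set limit; inconclusive = no clear call, values can overlap the other calls; inactive = the rest.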 Only a part is listed here, and it is no random draw. Measured potencies and affinities stand elsewhere.

Test: growth inhibition of wild-type GFP E. coli versus G2058-humanized strain, dose response, G2058 mutant RFP vs wild-type GFP, cherry-pick, two tests (AID 1035470)
Conditions: E. coli WT-GFP vs G2058-humanized RFP, fluorescence, 24 h; at 50 µM (top of the series)
In the case of `Cc1ccc([N+](=O)[O-])c(OCCn2cnc3ccccc32)c1`, the activity change, negative = inhibition is reported as inactive: -5.38.
For `COc1ccc(NC(=O)c2ccc(COc3ccccc3Br)o2)c(OC)c1`, the activity change, negative = inhibition was inactive: -16.7.
With `O=C(COC(=O)C1CC1)Nc1nc(-c2ccc(F)c(F)c2)cs1` the activity change, negative = inhibition was inactive: -19.8.
For `CSc1nnnn1-c1ccc(Cl)cc1`, the activity change, negative = inhibition was inactive: -12.6.
For `CC(C)(C)CC(=O)NCCc1csc(-c2ccccc2)n1`, the activity change, negative = inhibition was inactive: 1.87.
With `COc1ccccc1N(C)S(=O)(=O)c1ccc(Cl)c(C(=O)NC2=NCCS2)c1` the activity change, negative = inhibition was inactive: -15.9.
In the case of `COc1ccc(OC)c(NC(=O)COC(=O)CCNc2ccccc2OC)c1`, the activity change, negative = inhibition is reported as inactive: -10.2.
With `CC1Cc2cc(S(=O)(=O)N3CCN(c4cccc(Cl)c4)CC3)ccc2N1C(=O)C1CC1` (stereo not drawn) the activity change, negative = inhibition was inactive: -12.6.
For `CCN(C(=O)COC(=O)CCc1ccccc1)c1ccccc1`, the activity change, negative = inhibition was inactive: 2.79.
For `CCOC(=O)c1cnc2ccc(OCC)cc2c1NCCCN1CCOCC1`, the activity change, negative = inhibition was inactive: -9.57.
With `COc1cc(CC(=O)Nc2nc(C)cs2)cc(OC)c1OC` the activity change, negative = inhibition was inactive: -4.69.
In the case of `COc1cccc(NC(=O)c2ccc(-c3ccc([N+](=O)[O-])cc3)o2)c1`, the activity change, negative = inhibition is reported as inactive: -18.6.
For `C[C@@H]1CN([C@@H](C)CO)C(=O)c2cccc(NC(=O)c3nc4ccccc4s3)c2O[C@@H]1CN(C)CC1CC1`, the activity change, negative = inhibition was inactive: -5.32.
For `O=C(NCCCN1CCOCC1)c1sc2cc([N+](=O)[O-])ccc2c1Cl`, the activity change, negative = inhibition was inactive: 8.82.
For `O=S(=O)(Nc1ccccc1N1CCCCC1)c1cccs1`, the activity change, negative = inhibition was inactive: -4.94.
With `COc1ccc(CN(C)C(=O)c2cc(-c3ccc(OC)c(OC)c3)nc3ccccc23)c(OC)c1` the activity change, negative = inhibition was inactive: -7.07.
With `COc1cc[n+]([O-])cc1[N+](=O)[O-]` the activity change, negative = inhibition was inactive: 6.82.
In the case of `Cc1cccc(C)c1Nc1ncnc2ccccc12`, the activity change, negative = inhibition is reported as inactive: -6.03.
For `O=C(Nc1ccc(Cl)c(Cl)c1)N[C@@H]1CC[C@@H](CCn2cc(C3CCCCC3)nn2)O[C@H]1CO`, the activity change, negative = inhibition was inactive: -14.9.
In the case of `CN1CCN(C(=O)c2cc3nc(-c4ccco4)cc(C(F)(F)F)n3n2)CC1`, the activity change, negative = inhibition is reported as inactive: 1.97.
For `C[C@@H]1CN([C@@H](C)CO)C(=O)c2cc(NC(=O)Nc3cccc4ccccc34)ccc2O[C@@H](C)CCCCO[C@H]1CN(C)C`, the activity change, negative = inhibition was inactive: 5.58.
With `Cc1cc(C)c(NC(=O)C(C)c2cccc(C(=O)c3ccccc3)c2)c(C)c1` (stereo not drawn) the activity change, negative = inhibition was inactive: -24.5.
For `COc1ccc(C2CC(c3ccc(Br)cc3)=NN2C(=O)CN2CCCC2)cc1` (stereo not drawn), the activity change, negative = inhibition was inactive: -6.02.
In the case of `COc1ccc(-c2nc(C3CCCCC3)no2)cc1OC`, the activity change, negative = inhibition is reported as inactive: -15.4.
With `O=C(CCC(=O)N1CCN(c2ccc(F)cc2)CC1)c1ccc(F)cc1` the activity change, negative = inhibition was inactive: -14.1.
With `O=C(Nc1ccn(Cc2ccc(Cl)cc2)n1)c1ccccc1` the activity change, negative = inhibition was inactive: -8.56.
For `COc1ccc(NC(=O)CN(c2ccccc2OC)S(=O)(=O)c2cccs2)cc1Cl`, the activity change, negative = inhibition was inactive: -19.3.
For `CCC(C(=O)NC1CCCC1)n1c(-c2ccnc3ccccc23)nc2ccccc21` (stereo not drawn), the activity change, negative = inhibition was inactive: -22.6.
In the case of `COc1ccc(C2CC(c3cccs3)=Nc3ccccc3S2)cc1` (stereo not drawn), the activity change, negative = inhibition is reported as inactive: -14.2.
For `Cn1c(=O)c2c(-c3ccccc3)n(-c3cc([N+](=O)[O-])ccc3N)cc2n(C)c1=O`, the activity change, negative = inhibition was inactive: -18.6.
For `CNC(=O)c1sc(-c2ccccn2)nc1C`, the activity change, negative = inhibition was inactive: 5.34.
For `O=[N+]([O-])c1ccc2nc(-c3ccccc3[N+](=O)[O-])[nH]c2c1`, the activity change, negative = inhibition was inactive: -1.6.
In the case of `O=S(=O)(NCc1cc(-c2ccccc2)no1)c1ccccc1Cl`, the activity change, negative = inhibition is reported as inactive: -13.4.
For `CCC1CCCCN1C(=O)CSc1nnc(-c2cccc(Cl)c2)o1` (stereo not drawn), the activity change, negative = inhibition was inactive: -21.8.
With `Cn1cc(CN2CCCC(C(=O)c3cccs3)C2)c(-c2cccc(Cl)c2)n1` (stereo not drawn) the activity change, negative = inhibition was inactive: -5.45.
In the case of `O=C(Nc1ccc(Cl)cn1)c1ccc([N+](=O)[O-])o1`, the activity change, negative = inhibition is reported as inactive: -7.62.
For `NC(=O)c1cccnc1Oc1ccc(Cl)cc1Cl`, the activity change, negative = inhibition was inactive: -0.964.
With `C=CCN(c1ccccc1)S(=O)(=O)c1ccc(Cl)c(C(=O)OCC(=O)NCCCN2CCCC2=O)c1` the activity change, negative = inhibition was inactive: -7.04.
With `Cc1noc(C)c1NC(=O)Nc1ccc2c(c1)C(=O)N([C@@H](C)CO)C[C@@H](C)[C@H](CN(C)C(=O)Nc1ccc3c(c1)OCO3)OCCCC[C@H](C)O2` the activity change, negative = inhibition was inactive: -11.1.
In the case of `COc1ccc(Cc2c(-c3cccc(Cl)c3)nc3ccc(Cl)cn23)c(C)c1`, the activity change, negative = inhibition is reported as inactive: 7.25.
For `O=[N+]([O-])c1ccc(/C=C/c2ccc3cccc([N+](=O)[O-])c3n2)cc1`, the activity change, negative = inhibition was inactive: -9.89.
For `CCOc1ccc(CN(C)C(=O)c2ccc(NS(=O)(=O)c3ccc4[nH]c(=O)[nH]c4c3)cc2)cc1`, the activity change, negative = inhibition was inactive: -6.14.
With `CCOC(=O)C1CCCN(Cc2c(Cl)cccc2Cl)C1` (stereo not drawn) the activity change, negative = inhibition was inactive: -11.9.
For `O=C(c1ccccc1)N(c1ccccc1)c1nccc2ccccc12`, the activity change, negative = inhibition was inactive: -1.24.
In the case of `O=C(Nc1ccc(Nc2ccccc2)cc1)c1ccc(F)cc1`, the activity change, negative = inhibition is reported as inactive: -12.1.
In the case of `CCc1cccc(CC)c1NC(=O)Cn1c(-c2ccc(F)cc2)noc1=O`, the activity change, negative = inhibition is reported as inactive: 6.64.
In the case of `CC(C)[C@@H]1CC[C@@H](C)C[C@H]1O`, the activity change, negative = inhibition is reported as inactive: 36.5.
For `Cc1nc2ncnn2c(N2CCC(C(=O)NC3CCCC3)CC2)c1Cc1ccccc1`, the activity change, negative = inhibition was inactive: -18.8.
In the case of `C[C@H](CO)N1C[C@H](C)[C@H](CN(C)C(=O)Nc2ccc(F)cc2)Oc2c(NC(=O)Nc3ccccc3)cccc2C1=O`, the activity change, negative = inhibition is reported as inactive: -2.94.
With `Cc1ccc(-c2c[n+](CC(=O)Nc3ccccc3)c3n2CCC3)cc1` the activity change, negative = inhibition was inactive: -6.8.
With `Cc1nn2c(NCc3ccccn3)cc(C(C)C)nc2c1-c1ccccc1` the activity change, negative = inhibition was inactive: -11.1.
In the case of `S=c1nc(-c2cc(Cl)cc(Cl)c2)[nH][nH]1`, the activity change, negative = inhibition is reported as inactive: -16.2.
With `COC(=O)c1cc(C)sc1NC(=O)CC1Nc2ccccc2NC1=O` (stereo not drawn) the activity change, negative = inhibition was inactive: -10.8.
For `CC(=O)Nc1ccc(NS(=O)(=O)c2ccc(Cl)s2)cc1`, the activity change, negative = inhibition was inactive: 17.5.
In the case of `CCN(CC)CCNC(=O)c1cc2cc3ccc(OC)cc3nc2o1`, the activity change, negative = inhibition is reported as inactive: -3.1.
For `CC(=O)c1cccc(NC(=O)COC(=O)CCC(=O)c2ccc(F)cc2)c1`, the activity change, negative = inhibition was inactive: -16.7.
In the case of `O=C(Nc1ccc(C(F)(F)F)cc1)C1CCN(c2cnccn2)CC1`, the activity change, negative = inhibition is reported as inactive: -6.77.
In the case of `CCc1nnc(NC(=O)CSc2ncc(-c3ccccc3)[nH]2)s1`, the activity change, negative = inhibition is reported as inactive: -3.58.
For `Clc1ccccc1C1CC(c2ccccc2)=Nc2ccccc2N1` (stereo not drawn), the activity change, negative = inhibition was inactive: -13.3.
With `O=C(OCC(=O)N1CCOCC1)c1cccc(S(=O)(=O)N2CCCc3ccccc32)c1` the activity change, negative = inhibition was inactive: -11.8.
In the case of `COc1cc(SC)ccc1C(=O)N(Cc1ccccc1)c1ccccn1`, the activity change, negative = inhibition is reported as inactive: -3.19.
With `CCCCNC(=O)c1c(N)[nH]c(C(=O)c2ccccc2)c1-c1ccccn1` the activity change, negative = inhibition was inactive: -9.97.
For `Cc1ccc(NC(=O)C[n+]2cc(-c3ccccc3)n3c2CCC3)cc1`, the activity change, negative = inhibition was inactive: 12.5.
In the case of `O=C(COC(=O)CNC(=O)c1ccc(F)cc1)Nc1cccc(S(=O)(=O)N2CCCC2)c1`, the activity change, negative = inhibition is reported as inactive: 0.469.
With `Cc1ccc(-n2c(SCC(N)=O)nnc2-c2cnccn2)cc1` the activity change, negative = inhibition was inactive: -1.72.
For `Cn1cc(CN(CCO)Cc2cccs2)c(-c2cccc(Cl)c2)n1`, the activity change, negative = inhibition was inactive: -20.2.
In the case of `CCCN1C(=O)C(O)(c2c(C)[nH]c3ccccc23)c2ccccc21` (stereo not drawn), the activity change, negative = inhibition is reported as inactive: -17.
In the case of `COCc1[nH]nc2c1C(c1ccc3c(c1)OCO3)N(c1ccc(OC)cc1)C2=O` (stereo not drawn), the activity change, negative = inhibition is reported as inactive: -13.
With `CCN(CC(=O)Nc1cccc(S(=O)(=O)N2CCCC2)c1)CC(=O)Nc1ccccc1OC` the activity change, negative = inhibition was inactive: -14.9.
In the case of `CC(C)=C(c1ccc(Cl)cc1)c1c(N)ncnc1N`, the activity change, negative = inhibition is reported as inactive: -3.62.
For `O=S(=O)(Cc1ccc(Cl)cc1)N1CCN(Cc2ccc3c(c2)OCO3)CC1`, the activity change, negative = inhibition was inactive: -9.04.
With `O=C(Cc1ccc(Br)cc1)Nc1cccc(-c2cn3c(n2)SCC3)c1` the activity change, negative = inhibition was inactive: -18.9.
In the case of `COc1cccc(SCC(=O)N2CCN(c3ccccc3)CC2)c1`, the activity change, negative = inhibition is reported as inactive: -8.2.
In the case of `Cc1ccccc1-n1nnnc1SCCCC(=O)c1ccc(F)cc1`, the activity change, negative = inhibition is reported as inactive: -19.
In the case of `Nc1[nH]c(C(=O)c2ccccc2)c(-c2ccc(Cl)cc2)c1C(=O)NCCc1c[nH]c2ccccc12`, the activity change, negative = inhibition is reported as inactive: -22.3.
For `Cc1ccc(S(=O)(=O)Nc2ccc3c(c2)C(=O)N([C@@H](C)CO)C[C@@H](C)[C@H](CN(C)C(=O)c2ccccc2)OCCCC[C@@H](C)O3)cc1`, the activity change, negative = inhibition was inactive: 0.461.
With `COc1ccc(CN2CCNC(=O)C2CC(=O)NCCCC2CCCC2)c(C)c1C` (stereo not drawn) the activity change, negative = inhibition was inactive: 0.654.
For `N#Cc1ccc(-c2ccc(C3[C@H]4CNC[C@@H]3N4S(=O)(=O)c3ccc(-c4ccccc4)cc3)cc2)cc1` (stereo partly drawn), the activity change, negative = inhibition was inactive: -9.11.
For `c1cc2cc(-c3c(-c4ccc5c(c4)OCO5)noc3-c3ccsc3)ccc2[nH]1`, the activity change, negative = inhibition was inactive: -0.174.
In the case of `CCOc1ccccc1C(=O)NCC(=O)OCCOc1cccc(Cl)c1`, the activity change, negative = inhibition is reported as inactive: -3.78.
With `COc1cc(OC)cc(C(=O)N[C@H](C(=O)OCC(=O)Nc2ccc(F)c(F)c2F)C(C)C)c1` the activity change, negative = inhibition was inactive: -2.53.
For `COc1ccc(NC(=O)Nc2cccc3c2O[C@H](CN(C)S(=O)(=O)c2ccc(Cl)cc2)[C@@H](C)CN([C@@H](C)CO)C3=O)cc1`, the activity change, negative = inhibition was inactive: -14.
In the case of `Cn1ccc2cc(-c3ccc4ncnc(NCc5cccs5)c4c3)ccc21`, the activity change, negative = inhibition is reported as inactive: -12.9.
For `COc1ccc(CN2C(=O)CC(Cc3cc(C)cc(C)c3)C2=O)cc1OC` (stereo not drawn), the activity change, negative = inhibition was inactive: -14.6.
With `Cc1ccc2nc(SCC(=O)c3ccc4c(c3)NC(=O)CO4)[nH]c2c1` the activity change, negative = inhibition was inactive: -2.27.
With `Cc1ccc(S(=O)(=O)N(C(=O)c2ccncc2)c2ccc(OC(=O)c3ccncc3)cc2)c(C)c1` the activity change, negative = inhibition was inactive: -4.38.
For `CC1CN(CC(=O)Nc2nc3ccccc3s2)CC(C)O1` (stereo not drawn), the activity change, negative = inhibition was inactive: -0.471.
For `O=C(OCC1COc2ccccc2O1)c1ccccc1F` (stereo not drawn), the activity change, negative = inhibition was inactive: -7.69.
